The supplement of paper PMC12823440, “Inhibitors supercharge kinase turnover through native proteolytic circuits” (Nature, 2025)
Structures can show the parent of a compound that is named as a salt. The list shows a part of the results. Hit calls seldom repeat between salt and free forms of one compound.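 In K562 cells expressing nanoluciferase-fused kinases, luminescence was recorded at 4 h intervals between 2 and 18 h, normalized as percent of control with DMSO at 100% and a positive control at 0%. A significant (2 sigma) signal drop marks a time point as decreased. The authors' rule for a hit is not shown and takes in more than the number of time points.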

Chains of the proteins cited; added tags and fusions are not shown. Lines headed by an entry give the natural chain unless they say otherwise; changes in a name come on top.
UniProt P29317, whole entry: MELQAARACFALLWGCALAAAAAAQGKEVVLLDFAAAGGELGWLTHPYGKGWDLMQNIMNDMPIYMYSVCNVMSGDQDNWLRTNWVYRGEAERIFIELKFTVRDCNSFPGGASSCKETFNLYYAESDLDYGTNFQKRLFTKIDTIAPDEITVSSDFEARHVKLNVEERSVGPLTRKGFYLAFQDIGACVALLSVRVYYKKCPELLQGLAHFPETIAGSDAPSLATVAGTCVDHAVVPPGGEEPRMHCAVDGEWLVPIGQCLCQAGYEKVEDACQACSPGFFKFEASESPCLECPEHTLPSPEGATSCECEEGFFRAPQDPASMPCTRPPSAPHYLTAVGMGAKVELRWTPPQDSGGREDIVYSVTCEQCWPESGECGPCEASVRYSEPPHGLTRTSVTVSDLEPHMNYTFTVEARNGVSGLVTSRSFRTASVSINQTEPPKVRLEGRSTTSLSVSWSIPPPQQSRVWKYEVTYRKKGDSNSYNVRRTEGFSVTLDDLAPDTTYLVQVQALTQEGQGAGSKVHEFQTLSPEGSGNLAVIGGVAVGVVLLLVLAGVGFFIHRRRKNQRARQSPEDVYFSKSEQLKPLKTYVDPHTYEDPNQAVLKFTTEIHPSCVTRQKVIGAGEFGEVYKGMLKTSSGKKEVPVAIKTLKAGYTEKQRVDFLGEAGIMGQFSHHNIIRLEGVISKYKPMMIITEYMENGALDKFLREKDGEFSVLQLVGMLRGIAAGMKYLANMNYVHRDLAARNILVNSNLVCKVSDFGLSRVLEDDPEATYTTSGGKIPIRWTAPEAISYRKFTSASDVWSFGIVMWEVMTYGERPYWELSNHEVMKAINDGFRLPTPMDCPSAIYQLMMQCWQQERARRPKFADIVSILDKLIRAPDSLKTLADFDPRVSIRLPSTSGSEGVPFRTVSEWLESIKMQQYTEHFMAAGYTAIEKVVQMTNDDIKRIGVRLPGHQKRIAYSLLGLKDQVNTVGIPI
UniProt P21860, whole entry: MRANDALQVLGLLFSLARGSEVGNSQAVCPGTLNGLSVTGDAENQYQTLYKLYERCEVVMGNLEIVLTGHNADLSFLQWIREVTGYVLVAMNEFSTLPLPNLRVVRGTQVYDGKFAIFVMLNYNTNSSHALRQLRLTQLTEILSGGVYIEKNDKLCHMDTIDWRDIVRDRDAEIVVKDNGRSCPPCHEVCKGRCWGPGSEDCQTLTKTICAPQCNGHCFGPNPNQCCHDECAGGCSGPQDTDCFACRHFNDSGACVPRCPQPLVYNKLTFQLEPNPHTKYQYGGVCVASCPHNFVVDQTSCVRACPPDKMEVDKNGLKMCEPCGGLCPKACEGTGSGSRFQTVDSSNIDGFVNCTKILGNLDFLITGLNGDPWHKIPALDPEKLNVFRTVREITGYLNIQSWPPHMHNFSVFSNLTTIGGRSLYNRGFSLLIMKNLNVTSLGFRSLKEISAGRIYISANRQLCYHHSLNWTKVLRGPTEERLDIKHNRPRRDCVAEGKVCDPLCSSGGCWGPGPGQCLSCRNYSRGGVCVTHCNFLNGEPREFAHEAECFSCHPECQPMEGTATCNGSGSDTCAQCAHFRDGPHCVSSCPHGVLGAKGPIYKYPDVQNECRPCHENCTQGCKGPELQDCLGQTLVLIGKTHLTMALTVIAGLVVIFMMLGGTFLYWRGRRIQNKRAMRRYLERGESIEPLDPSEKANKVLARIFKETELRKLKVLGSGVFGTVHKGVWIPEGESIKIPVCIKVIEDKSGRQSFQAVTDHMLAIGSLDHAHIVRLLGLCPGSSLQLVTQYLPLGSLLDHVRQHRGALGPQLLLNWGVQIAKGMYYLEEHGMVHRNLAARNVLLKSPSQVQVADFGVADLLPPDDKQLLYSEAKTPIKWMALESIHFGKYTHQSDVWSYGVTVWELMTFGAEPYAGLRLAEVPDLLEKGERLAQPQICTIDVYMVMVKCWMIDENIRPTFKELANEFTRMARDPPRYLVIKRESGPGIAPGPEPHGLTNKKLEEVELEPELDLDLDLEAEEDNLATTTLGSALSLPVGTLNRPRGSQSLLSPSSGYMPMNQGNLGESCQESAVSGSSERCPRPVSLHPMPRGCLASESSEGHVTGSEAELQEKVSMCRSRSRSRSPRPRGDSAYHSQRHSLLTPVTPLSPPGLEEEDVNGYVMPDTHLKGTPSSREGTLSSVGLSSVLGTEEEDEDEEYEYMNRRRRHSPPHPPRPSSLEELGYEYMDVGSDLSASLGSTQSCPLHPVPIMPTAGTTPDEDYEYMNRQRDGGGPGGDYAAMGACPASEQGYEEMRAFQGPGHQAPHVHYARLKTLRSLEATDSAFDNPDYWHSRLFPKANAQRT
UniProt Q15303, whole entry R711C: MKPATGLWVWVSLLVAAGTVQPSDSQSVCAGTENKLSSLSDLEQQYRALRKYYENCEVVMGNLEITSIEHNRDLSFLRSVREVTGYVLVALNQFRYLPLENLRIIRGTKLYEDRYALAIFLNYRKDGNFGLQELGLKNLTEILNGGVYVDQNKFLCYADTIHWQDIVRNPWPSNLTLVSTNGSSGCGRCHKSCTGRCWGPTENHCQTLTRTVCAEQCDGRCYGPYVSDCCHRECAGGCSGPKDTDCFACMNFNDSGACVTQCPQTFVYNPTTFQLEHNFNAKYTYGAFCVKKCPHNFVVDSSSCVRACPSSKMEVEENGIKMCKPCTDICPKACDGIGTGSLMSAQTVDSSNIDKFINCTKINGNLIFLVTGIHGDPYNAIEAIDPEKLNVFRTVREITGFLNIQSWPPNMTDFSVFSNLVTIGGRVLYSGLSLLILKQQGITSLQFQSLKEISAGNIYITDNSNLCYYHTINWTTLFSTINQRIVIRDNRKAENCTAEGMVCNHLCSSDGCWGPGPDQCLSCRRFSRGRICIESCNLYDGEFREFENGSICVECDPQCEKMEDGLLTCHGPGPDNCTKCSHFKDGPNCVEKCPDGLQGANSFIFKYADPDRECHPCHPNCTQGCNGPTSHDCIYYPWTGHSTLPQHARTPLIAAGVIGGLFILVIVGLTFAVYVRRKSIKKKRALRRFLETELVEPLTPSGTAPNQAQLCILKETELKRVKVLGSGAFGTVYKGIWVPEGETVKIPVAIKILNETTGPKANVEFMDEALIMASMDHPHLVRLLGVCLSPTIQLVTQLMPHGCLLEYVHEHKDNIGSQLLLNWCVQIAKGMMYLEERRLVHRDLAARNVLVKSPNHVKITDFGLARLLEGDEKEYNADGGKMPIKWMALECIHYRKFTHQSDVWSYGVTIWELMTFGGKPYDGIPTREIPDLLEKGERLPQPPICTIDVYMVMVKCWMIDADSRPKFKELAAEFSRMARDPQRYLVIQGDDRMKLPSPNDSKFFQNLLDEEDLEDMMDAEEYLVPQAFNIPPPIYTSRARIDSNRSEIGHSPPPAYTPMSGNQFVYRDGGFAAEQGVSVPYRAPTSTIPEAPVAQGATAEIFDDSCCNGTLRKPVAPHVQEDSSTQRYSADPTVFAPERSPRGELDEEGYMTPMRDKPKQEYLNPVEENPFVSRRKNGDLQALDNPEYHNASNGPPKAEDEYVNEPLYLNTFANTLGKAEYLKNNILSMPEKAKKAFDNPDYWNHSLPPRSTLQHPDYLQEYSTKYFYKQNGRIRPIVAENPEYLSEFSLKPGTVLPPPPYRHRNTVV
UniProt O75460: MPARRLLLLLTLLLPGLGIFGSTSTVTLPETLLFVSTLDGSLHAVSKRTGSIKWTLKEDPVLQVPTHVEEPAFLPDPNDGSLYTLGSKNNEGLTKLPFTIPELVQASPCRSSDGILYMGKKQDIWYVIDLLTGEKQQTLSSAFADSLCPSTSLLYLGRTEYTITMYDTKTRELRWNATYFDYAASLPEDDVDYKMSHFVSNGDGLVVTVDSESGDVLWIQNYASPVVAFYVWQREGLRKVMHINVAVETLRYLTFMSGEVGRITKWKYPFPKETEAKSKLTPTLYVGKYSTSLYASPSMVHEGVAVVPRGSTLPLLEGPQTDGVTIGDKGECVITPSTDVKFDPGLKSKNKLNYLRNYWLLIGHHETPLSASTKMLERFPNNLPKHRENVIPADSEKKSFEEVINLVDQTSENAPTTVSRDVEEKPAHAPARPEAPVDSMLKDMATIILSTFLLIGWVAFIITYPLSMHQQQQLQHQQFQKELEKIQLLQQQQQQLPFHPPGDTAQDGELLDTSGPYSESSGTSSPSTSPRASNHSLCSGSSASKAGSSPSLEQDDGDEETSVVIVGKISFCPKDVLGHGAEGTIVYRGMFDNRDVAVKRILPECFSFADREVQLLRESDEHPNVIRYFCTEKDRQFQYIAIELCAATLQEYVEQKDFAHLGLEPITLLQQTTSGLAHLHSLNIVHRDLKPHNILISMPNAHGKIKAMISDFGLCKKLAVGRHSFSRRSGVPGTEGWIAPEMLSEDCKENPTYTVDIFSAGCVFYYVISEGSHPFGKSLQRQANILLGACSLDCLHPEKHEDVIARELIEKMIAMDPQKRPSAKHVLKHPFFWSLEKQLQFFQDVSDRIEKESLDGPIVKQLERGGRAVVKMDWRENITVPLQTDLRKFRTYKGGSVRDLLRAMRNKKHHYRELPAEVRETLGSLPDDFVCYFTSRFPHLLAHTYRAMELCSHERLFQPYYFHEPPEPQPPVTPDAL
UniProt P21802, whole entry, looked up: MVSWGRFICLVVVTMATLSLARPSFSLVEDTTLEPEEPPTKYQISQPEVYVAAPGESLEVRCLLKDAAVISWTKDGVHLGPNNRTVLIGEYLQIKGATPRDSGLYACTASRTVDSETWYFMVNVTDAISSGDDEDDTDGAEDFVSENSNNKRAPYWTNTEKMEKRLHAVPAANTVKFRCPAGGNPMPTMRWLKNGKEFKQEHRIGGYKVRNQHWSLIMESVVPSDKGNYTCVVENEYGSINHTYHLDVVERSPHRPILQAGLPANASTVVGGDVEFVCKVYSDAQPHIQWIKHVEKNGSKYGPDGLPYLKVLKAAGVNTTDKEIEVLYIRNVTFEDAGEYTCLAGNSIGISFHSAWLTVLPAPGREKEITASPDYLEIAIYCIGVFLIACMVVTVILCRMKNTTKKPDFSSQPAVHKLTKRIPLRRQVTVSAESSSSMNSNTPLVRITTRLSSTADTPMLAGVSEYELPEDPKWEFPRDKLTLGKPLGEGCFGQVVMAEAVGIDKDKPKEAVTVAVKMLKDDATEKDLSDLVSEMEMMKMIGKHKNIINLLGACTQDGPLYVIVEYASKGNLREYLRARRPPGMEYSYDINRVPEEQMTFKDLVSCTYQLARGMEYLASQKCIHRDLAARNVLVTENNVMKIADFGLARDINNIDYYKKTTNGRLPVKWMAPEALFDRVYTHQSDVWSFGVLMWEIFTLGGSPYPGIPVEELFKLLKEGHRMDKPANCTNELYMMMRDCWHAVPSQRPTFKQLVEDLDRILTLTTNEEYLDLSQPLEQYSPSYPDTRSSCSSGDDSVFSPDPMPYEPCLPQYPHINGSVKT
UniProt P22607, whole entry, looked up: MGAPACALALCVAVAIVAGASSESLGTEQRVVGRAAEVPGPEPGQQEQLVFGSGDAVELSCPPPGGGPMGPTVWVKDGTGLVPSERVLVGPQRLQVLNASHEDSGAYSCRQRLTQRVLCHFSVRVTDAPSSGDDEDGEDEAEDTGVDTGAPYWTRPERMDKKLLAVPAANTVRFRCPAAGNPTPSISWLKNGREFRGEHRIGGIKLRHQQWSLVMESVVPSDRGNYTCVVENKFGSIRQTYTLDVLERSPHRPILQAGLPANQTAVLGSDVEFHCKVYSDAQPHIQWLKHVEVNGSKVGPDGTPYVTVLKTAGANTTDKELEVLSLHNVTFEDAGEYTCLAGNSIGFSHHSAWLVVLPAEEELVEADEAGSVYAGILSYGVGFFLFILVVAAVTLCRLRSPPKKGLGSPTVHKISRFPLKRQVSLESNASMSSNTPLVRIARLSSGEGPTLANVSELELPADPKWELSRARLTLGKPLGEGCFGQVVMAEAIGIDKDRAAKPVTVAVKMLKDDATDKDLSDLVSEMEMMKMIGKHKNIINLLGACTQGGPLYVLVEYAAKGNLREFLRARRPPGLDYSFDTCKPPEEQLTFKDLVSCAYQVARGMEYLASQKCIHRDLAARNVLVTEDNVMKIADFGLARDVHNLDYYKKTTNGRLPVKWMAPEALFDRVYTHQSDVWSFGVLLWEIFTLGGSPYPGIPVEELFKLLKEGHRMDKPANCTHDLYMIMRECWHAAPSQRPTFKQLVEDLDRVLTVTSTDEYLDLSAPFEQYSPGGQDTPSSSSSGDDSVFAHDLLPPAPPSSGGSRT

Experiments:
Assay in all cases: number of time points (of 5) at which kinase-Nluc abundance scored as decreased, DMSO-normalised (count); higher = more persistent destabilization
Details in all cases: K562; 2-18 h
EGFR_L861Q = EGFR_L861Q (UniProt P00533)
EGFR_T790M = EGFR_T790M (UniProt P00533)
EPHA2 = EPHA2 (UniProt P29317)
ERBB3 = ERBB3 (UniProt P21860)
[1] = target: ERBB4_R711C (clone: ERBB4_mut) (UniProt Q15303)
ERN1 = ERN1 (UniProt O75460)
FGFR1 = FGFR1 (UniProt P11362)
FGFR2 = FGFR2 (UniProt P21802)
FGFR3 = FGFR3 (UniProt P22607)
FGR = FGR (UniProt P09769)

Measured: number of time points

CC[C@@H](N)CNc1ccnc(-c2cc(-c3cnn(C)c3)ccc2O)n1 (2.5 µM)
3: EGFR_L861Q | [1]
0: EGFR_T790M | EPHA2 | ERBB3 | ERN1 | FGFR1 | FGFR2 | FGFR3 | FGR

CN(C)Cc1cccc(N=C(c2ccccc2)c2c(O)[nH]c3cc(C(N)=O)ccc23)c1 (10 µM)
0: EGFR_L861Q | EGFR_T790M | EPHA2 | ERBB3 | [1] | ERN1 | FGFR1 | FGFR2 | FGFR3 | FGR

CC1(N)CCN(c2cnc3c(-c4cccc(Cl)c4Cl)[nH]nc3n2)CC1 (2.5 µM)
0: EGFR_L861Q | EGFR_T790M | EPHA2 | ERBB3 | [1] | ERN1 | FGFR1 | FGFR2 | FGFR3 | FGR

O=C1NCCCc2c1oc1ccc(O)cc21 (10 µM)
0: EGFR_L861Q | EGFR_T790M | EPHA2 | ERBB3 | [1] | ERN1 | FGFR1 | FGFR2 | FGFR3 | FGR

Nc1ncc(-c2ccc(C(=O)N3CCNCC3)cc2)nc1-c1ccc(C(F)(F)F)cc1 (10 µM)
0: EGFR_L861Q | EGFR_T790M | EPHA2 | ERBB3 | [1] | ERN1 | FGFR1 | FGFR2 | FGFR3 | FGR

CCN1C(=O)CNc2ncc(-c3ccc(-c4nc[nH]n4)nc3C)nc21 [CC-115 (hydrochloride)] (2.5 µM)
1: EGFR_T790M | EPHA2
0: ERBB3 | FGR
4: [1] | FGFR3
2: EGFR_L861Q | ERN1
3: FGFR1 | FGFR2

O[C@H]1CC[C@H](Nc2ncc3nc(Nc4c(F)cc(F)cc4F)n([C@H]4CCOC4)c3n2)CC1 [Tanzisertib] (10 µM)
0: EGFR_L861Q | EGFR_T790M | EPHA2 | ERBB3 | [1] | ERN1 | FGFR1 | FGFR2 | FGFR3 | FGR

O=c1cc(-c2ccc(O)c(O)c2O)oc2ccccc12 (10 µM)
0: EGFR_L861Q | EGFR_T790M | EPHA2 | ERBB3 | [1] | ERN1 | FGFR1 | FGFR2 | FGFR3 | FGR

Nc1n[nH]c2cc(-c3ccc(=O)n(Cc4cccc(Cl)c4)c3)ccc12 (10 µM)
0: EGFR_L861Q | EGFR_T790M | EPHA2 | ERBB3 | [1] | ERN1 | FGFR1 | FGFR2 | FGFR3 | FGR

Cc1cc2cc(Oc3ccnc(Nc4cccc(CS(=O)(=O)NCCN(C)C)c4)n3)ccc2[nH]1 [Sulfatinib] (10 µM)
3: ERBB3
2: [1] | FGFR2
0: EGFR_L861Q | EGFR_T790M | EPHA2 | ERN1 | FGFR1 | FGFR3 | FGR

CC(=O)Nc1nc(C)c(-c2nc(N3CCCC(O)C3)no2)s1 (stereo not given) (10 µM)
0: EGFR_L861Q | EGFR_T790M | EPHA2 | ERBB3 | [1] | ERN1 | FGFR1 | FGFR2 | FGFR3 | FGR

CC1(COc2ccc3c(c2)ncn3-c2ccc3cccc(N4CCC(N)CC4)c3n2)COC1 [Crenolanib] (2.5 µM)
0: EGFR_L861Q | EGFR_T790M | EPHA2 | ERBB3 | [1] | ERN1 | FGFR1 | FGFR2 | FGR
1: FGFR3

Nc1cc(C(F)(F)F)c(-c2nc(N3CCOCC3)nc(N3CCOCC3)n2)cn1 [Bimiralisib] (10 µM)
0: EGFR_T790M | EPHA2 | ERBB3 | ERN1 | FGFR1 | FGR
2: EGFR_L861Q | FGFR2 | FGFR3
4: [1]

COc1ccc2c(=O)c(-c3ccccc3)coc2c1 [7-Methoxyisoflavone] (10 µM)
3: FGFR1
0: EGFR_L861Q | EGFR_T790M | EPHA2 | ERBB3 | [1] | ERN1 | FGFR2 | FGFR3 | FGR

COc1cc(C(C)=O)cc(OC)c1O [Acetosyringone] (10 µM)
0: EGFR_L861Q | EGFR_T790M | EPHA2 | ERBB3 | [1] | ERN1 | FGFR1 | FGFR2 | FGFR3 | FGR

CCc1ccc(C(=O)COc2ccc(CC3SC(=O)NC3=O)cc2)nc1 (stereo not given) (10 µM)
0: EGFR_L861Q | EGFR_T790M | EPHA2 | ERBB3 | [1] | ERN1 | FGFR1 | FGFR2 | FGFR3 | FGR

COc1cnccc1Nc1nc(-c2nn(Cc3c(F)cc(OCCO)cc3F)c3ccccc23)ncc1OC (10 µM)
0: EGFR_L861Q | EGFR_T790M | EPHA2 | ERBB3 | [1] | ERN1 | FGFR1 | FGFR2 | FGFR3 | FGR

COc1c(O)cc2oc3cc(O)c(CC=C(C)C)c(O)c3c(=O)c2c1CCC(C)(C)O [Garcinone D] (2.5 µM)
0: EGFR_L861Q | EGFR_T790M | EPHA2 | ERBB3 | [1] | ERN1 | FGFR1 | FGFR2 | FGFR3 | FGR

COc1cc(N2CCC(N(C)C)CC2)ccc1Nc1ncc(Cl)c(Nc2ccccc2P(C)(C)=O)n1 (2.5 µM)
2: FGFR3
0: EGFR_L861Q | EGFR_T790M | EPHA2 | ERBB3 | [1] | ERN1 | FGFR1 | FGR
1: FGFR2

Fc1c(Br)cccc1Nc1ncnc2cc3c(cc12)OCCO3 (2.5 µM)
0: EGFR_T790M | EPHA2 | ERBB3 | FGFR1 | FGFR2 | FGFR3 | FGR
1: EGFR_L861Q | [1] | ERN1

N=C(N)NC(=N)NCCc1ccccc1 [Phenformin (hydrochloride)] (10 µM)
0: EGFR_L861Q | EGFR_T790M | EPHA2 | ERBB3 | [1] | ERN1 | FGFR1 | FGFR2 | FGFR3 | FGR

CC[C@H](Nc1ncnc2[nH]cnc12)c1oc2ccccc2c(=O)c1-c1cccc(F)c1 [Tenalisib] (10 µM)
0: EGFR_L861Q | EGFR_T790M | EPHA2 | ERBB3 | [1] | ERN1 | FGFR1 | FGFR2 | FGFR3 | FGR

O=C(CCCCCn1cc(Nc2ncc(Cl)c(Nc3ccc(Cl)cc3)n2)cn1)NO (2.5 µM)
1: EGFR_T790M | ERN1
0: EGFR_L861Q | EPHA2 | ERBB3 | [1] | FGFR1 | FGFR2 | FGFR3 | FGR

O=C(Nc1ccc(Cl)c(Cl)c1)Nc1ccc2nnsc2c1 (10 µM)
0: EGFR_L861Q | EGFR_T790M | EPHA2 | ERBB3 | [1] | ERN1 | FGFR1 | FGFR2 | FGFR3 | FGR

CCOc1nc(Nc2ccc(C(=O)N3CCOCC3)cc2OC)nc2[nH]ccc12 [LRRK2 inhibitor 1] (2.5 µM)
0: EGFR_L861Q | EGFR_T790M | EPHA2 | ERBB3 | [1] | ERN1 | FGFR1 | FGFR2 | FGFR3 | FGR

CCCCNC(=N)NC(=N)N [Buformin (hydrochloride)] (2.5 µM)
0: EGFR_L861Q | EGFR_T790M | EPHA2 | ERBB3 | [1] | ERN1 | FGFR1 | FGFR2 | FGFR3 | FGR

O=C(O)c1ccccc1Nc1cccc(C(F)(F)F)c1 [Flufenamic acid] (10 µM)
0: EGFR_L861Q | EGFR_T790M | EPHA2 | ERBB3 | [1] | ERN1 | FGFR1 | FGFR2 | FGFR3 | FGR

Cc1cc(Nc2nc(N[C@@H](C)c3ncc(F)cn3)ncc2Cl)[nH]n1 (10 µM)
0: EGFR_L861Q | EGFR_T790M | EPHA2 | ERBB3 | [1] | ERN1 | FGFR1 | FGFR2 | FGFR3 | FGR

O=[N+]([O-])c1ccc(Sc2cccc[n+]2[O-])c2nonc12 (2.5 µM)
0: EGFR_L861Q | EGFR_T790M | EPHA2 | ERBB3 | [1] | ERN1 | FGFR1 | FGFR2 | FGFR3 | FGR

COc1ccc(-n2c(C)c([N+](=O)[O-])c3ccc(O)cc32)cc1 (10 µM)
0: EGFR_L861Q | EGFR_T790M | EPHA2 | ERBB3 | [1] | ERN1 | FGFR1 | FGFR2 | FGFR3 | FGR

O=Nc1c(-c2c(O)[nH]c3ccccc23)[nH]c2ccccc12 [Indirubin-3'-monoxime] (2.5 µM)
0: EGFR_L861Q | EGFR_T790M | EPHA2 | ERBB3 | [1] | ERN1 | FGFR2 | FGFR3 | FGR
4: FGFR1

O=C1NC(=O)C(c2cn(-c3ccccc3)nc2-c2ccc(F)cc2)N1 (stereo not given) (10 µM)
0: EGFR_L861Q | EGFR_T790M | EPHA2 | ERBB3 | [1] | ERN1 | FGFR1 | FGFR2 | FGFR3 | FGR

Eight structures out of the list, arranged by molecular weight, falling:
O=C(CCCCCn1cc(Nc2ncc(Cl)c(Nc3ccc(Cl)cc3)n2)cn1)NO (2.5 µM)
1: EGFR_T790M | ERN1
0: EGFR_L861Q | EPHA2 | ERBB3 | [1] | FGFR1 | FGFR2 | FGFR3 | FGR

CC[C@H](Nc1ncnc2[nH]cnc12)c1oc2ccccc2c(=O)c1-c1cccc(F)c1 [Tenalisib] (10 µM)
0: EGFR_L861Q | EGFR_T790M | EPHA2 | ERBB3 | [1] | ERN1 | FGFR1 | FGFR2 | FGFR3 | FGR

CCOc1nc(Nc2ccc(C(=O)N3CCOCC3)cc2OC)nc2[nH]ccc12 [LRRK2 inhibitor 1] (2.5 µM)
0: EGFR_L861Q | EGFR_T790M | EPHA2 | ERBB3 | [1] | ERN1 | FGFR1 | FGFR2 | FGFR3 | FGR

Cc1cc(Nc2nc(N[C@@H](C)c3ncc(F)cn3)ncc2Cl)[nH]n1 (10 µM)
0: EGFR_L861Q | EGFR_T790M | EPHA2 | ERBB3 | [1] | ERN1 | FGFR1 | FGFR2 | FGFR3 | FGR

O=C(Nc1ccc(Cl)c(Cl)c1)Nc1ccc2nnsc2c1 (10 µM)
0: EGFR_L861Q | EGFR_T790M | EPHA2 | ERBB3 | [1] | ERN1 | FGFR1 | FGFR2 | FGFR3 | FGR

O=C1NC(=O)C(c2cn(-c3ccccc3)nc2-c2ccc(F)cc2)N1 (stereo not given) (10 µM)
0: EGFR_L861Q | EGFR_T790M | EPHA2 | ERBB3 | [1] | ERN1 | FGFR1 | FGFR2 | FGFR3 | FGR

O=[N+]([O-])c1ccc(Sc2cccc[n+]2[O-])c2nonc12 (2.5 µM)
0: EGFR_L861Q | EGFR_T790M | EPHA2 | ERBB3 | [1] | ERN1 | FGFR1 | FGFR2 | FGFR3 | FGR

O=C(O)c1ccccc1Nc1cccc(C(F)(F)F)c1 [Flufenamic acid] (10 µM)
0: EGFR_L861Q | EGFR_T790M | EPHA2 | ERBB3 | [1] | ERN1 | FGFR1 | FGFR2 | FGFR3 | FGR

(list continues)

CCn1nc(C2CCN(C(=O)CCO)CC2)nc1-c1cnc(N)c(-c2nnc(C(C)(C)C)o2)n1 (10 µM)
0: EGFR_L861Q | EGFR_T790M | EPHA2 | ERBB3 | [1] | ERN1 | FGFR1 | FGFR2 | FGFR3 | FGR

C=CC(=O)N1CCC(Oc2cc3c(Nc4ccc(Cl)c(Cl)c4F)ncnc3cc2OC)CC1 [Poziotinib] (2.5 µM)
0: EGFR_L861Q | EGFR_T790M | EPHA2 | ERBB3 | [1] | ERN1 | FGFR1 | FGFR2 | FGFR3 | FGR

CC(C)N(C)c1nc2cc(C(=O)O)ccc2nc1-c1ccc(F)cc1 (10 µM)
0: EGFR_L861Q | EGFR_T790M | EPHA2 | ERBB3 | [1] | ERN1 | FGFR1 | FGFR2 | FGFR3 | FGR

O=C(O)c1ccc(N2N=C(Cc3ccccc3)C(=Cc3ccc(-c4ccccc4F)o3)C2=O)cc1 (10 µM)
0: EGFR_L861Q | EGFR_T790M | EPHA2 | ERBB3 | [1] | ERN1 | FGFR1 | FGFR2 | FGFR3 | FGR

NS(=O)(=O)c1ccc(N2N=C(c3ccccc3)CC2c2ccccc2)cc1 (stereo not given) (10 µM)
1: ERBB3
0: EGFR_L861Q | EGFR_T790M | EPHA2 | [1] | ERN1 | FGFR1 | FGFR2 | FGFR3 | FGR

CCCCCCCC/C=C\CCCCCCCC(=O)NCC(=O)O [N-Oleoyl glycine] (10 µM)
0: EGFR_L861Q | EGFR_T790M | EPHA2 | ERBB3 | [1] | ERN1 | FGFR1 | FGFR2 | FGFR3 | FGR
